Some of the results follow. The main result of the screen is listed elsewhere. These columns were measured beside it and carry no call. The list favours compounds with an active or inconclusive main result. The note in brackets gives the kind of curve behind each potency; many fits are weak.
Assay: qHTS Assay to Find Inhibitors of Chronic Active B-Cell Receptor Signaling
Settings: ABC-DLBCL IkBa-CBG/CBR reporter, luminescence ratio (green luciferase fused to IkBa over red control in TMD8 lymphoma cells), 4 h
How it was run: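 Cell line TMD8 (human ABC DLBCL), stably expressing tet-inducible CBG68-IkBa fusion and CBR; IMDM/0.5% FBS; cpd up to 46 uM; dox induction, 4 h, 37C/5% CO2; dual luminescence; green/red ratio; MG132 control.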

[1] = measured here: CBR red luminescence, cell number
[2] = measured here: IkBa-CBG green luminescence

## CCN(CC)C(=O)Oc1ccc(Cl)c2ccccc12
[1]
  AC50: 35.5 µM [rising, single point]

## CCCCn1c(N)c(N(CCOC)C(=O)CN2CC=C(c3ccccc3)CC2)c(=O)[nH]c1=O
[1]
  AC50: 3.55 µM [falling, single point]

## O=c1[nH]c2ccccc2nc1/C=C(\O)c1cccs1
[1]
  AC50: 2.51 µM [falling, full curve]

## CCOC(=O)C(O)(c1ccc(N(C)C(=O)c2ccc(Cl)c(Cl)c2)cc1)C(F)(F)F (configuration not stated)
[1]
  AC50: 18.4 µM [falling, single point]

## O=c1[nH]c(O)c(N=Nc2ccc3c(c2)OCCO3)c(=O)[nH]1
[1]
  AC50: 6.31 µM [falling, partial curve, poor fit]

## CC/C(=N\NC(=O)c1ccccc1)c1c(O)n(Cc2ccccc2)c(=O)[nH]c1=O
[1]
  AC50: 3.55 µM [falling, partial curve]

## O=C1NC(=O)[C@]2(Cc3ccccc3N3CCN(c4ccccc4)CC32)C(=O)N1Cc1ccccc1 (some centres not stated)
[1]
  AC50: 7.08 µM [falling, partial curve]

## CCN1C(=O)N(CC)C(=O)C2(Cc3ccccc3N3CCN(c4ccccc4)CC32)C1=O (configuration not stated)
[1]
  AC50: 4.47 µM [falling, partial curve]

## COc1cccc(OC)c1C1=NCC(=O)Nc2c1oc1ccc(Br)cc21
[1]
  AC50: 7.31 µM [rising, partial curve]
[2]
  AC50: 11.6 µM [falling, partial curve]

## COc1ccc(CNC(=O)Cn2c(=O)oc3cc(S(=O)(=O)NCc4ccccc4)ccc32)cc1
[1]
  AC50: 35.5 µM [rising, single point]

## Cc1ccc2cccc(OC(=O)N3CCCC3)c2n1
[1]
  AC50: 18.4 µM [rising, partial curve, poor fit]

## COc1ccc(N2CCN(Cc3nc4ccccc4[nH]3)CC2)cc1
[1]
  AC50: 15.8 µM [rising, partial curve, poor fit]

## COCCNC(=O)c1c(NC(=O)c2ccc(Br)o2)n(Cc2ccccc2)c2nc3ccccc3nc12
[2]
  AC50: 29.1 µM [falling, single point]

## Cc1c(N=Cc2c(O)n(CCc3ccccc3)c(=O)[nH]c2=O)c(=O)n(-c2ccccc2)n1C
[1]
  AC50: 0.517 µM [rising, partial curve, poor fit]

## COc1ccc(-c2csc(NC(=O)C3CCN(C(=O)c4ccc(F)cc4)CC3)n2)cc1OC
[1]
  AC50: 35.5 µM [falling, single point]

## CCN(CC)C(=O)c1ccc(NC(=O)c2cccc(F)c2)cc1
[1]
  AC50: 7.31 µM [falling, single point]

## COc1ccc(NC2=NCC(C)S2)cc1 (configuration not stated)
[1]
  AC50: 0.0891 µM [falling, full curve, poor fit]

## COc1ccc(NC(=O)N(CCO)Cc2cc3c(C)cc(C)cc3[nH]c2=O)cc1
[1]
  AC50: 3.55 µM [rising, single point]

## C=CCn1c(O)c(C(C)=NCCN2CCCCC2)c(=O)[nH]c1=O
[1]
  AC50: 29.1 µM [falling, single point]

## COC(=O)C1CN(C#N)N(c2ccc(Cl)cc2)C12c1ccccc1-c1ccccc12 (configuration not stated)
[1]
  AC50: 1.84 µM [falling, full curve]
[2]
  AC50: 2.59 µM [rising, full curve, poor fit]

## c1ccc2c(CNC3CCCCCC3)c[nH]c2c1
[1]
  AC50: 23.1 µM [falling, single point]

## Cc1cccc(CNCCc2c[nH]c3ccccc23)c1
[1]
  AC50: 22.4 µM [falling, single point]

## COc1ccc(/C=N/Nc2nc3ccccc3c(=O)[nH]2)cc1
[1]
  AC50: 6.31 µM [falling, partial curve]

## CCOc1cc(/C=C\[N+](=O)[O-])ccc1OCC(=O)Nc1ccccc1C
[1]
  AC50: 22.4 µM [falling, partial curve, poor fit]

## CC(=O)[C@@]1(O)CCC2C3CC=C4C[C@@H](O)CC[C@]4(C)C3CC[C@@]21C (some centres not stated)
[1]
  AC50: 5.17 µM [rising, full curve, poor fit]

## COc1ccc(CCNC(=O)c2c(N)n(CCN3CCOCC3)c3nc4ccccc4nc23)cc1OC
[1]
  AC50: 35.5 µM [falling, single point]

## c1ccc2c3c([nH]c2c1)CNCC3
[1]
  AC50: 29.1 µM [rising, single point]

## N#Cc1ccc(NC(=O)CN2C(=O)NC3(CCCCCCC3)C2=O)cc1Cl
[1]
  AC50: 16.4 µM [falling, single point]

## O=C1C(=O)c2cccc3cccc1c23
[1]
  AC50: 10.3 µM [rising, partial curve]
[2]
  AC50: 6.51 µM [falling, partial curve]

## O=c1c2ccccc2nc(N/N=C/c2ccccc2)n1O
[1]
  AC50: 6.31 µM [falling, full curve]

## Clc1ccc(C(c2ccc(Cl)cc2)n2cc[n+](CC(OCc3ccc(Cl)cc3Cl)c3ccc(Cl)cc3Cl)c2)cc1 (configuration not stated)
[1]
  AC50: 29.1 µM [falling, single point]

## COc1ccccc1N(Cc1cc(=O)[nH]c2ccccc12)C(=O)c1cccc([N+](=O)[O-])c1
[1]
  AC50: 12.6 µM [falling, partial curve, poor fit]

## COC(=O)C1=C(c2ccc(OC(F)(F)F)cc2)C[C@@H]2CC[C@H]1N2C(=O)NCc1cccc2ccccc12
[1]
  AC50: 2.91 µM [falling, partial curve, poor fit]

## NC(=O)CC(NC(=O)c1ccc(Br)cc1)c1ccc(N2CCCCCCC2)c([N+](=O)[O-])c1 (configuration not stated)
[1]
  AC50: 11.2 µM [falling, partial curve]

## Cc1cccc(OCCn2c(=O)oc3ccc(C)cc32)c1
[1]
  AC50: 3.55 µM [rising, single point]

## CCOC(=O)c1ccc2c(c1)n(Cc1ccccc1)c(C)[n+]2CC
[1]
  AC50: 3.16 µM [falling, partial curve, poor fit]

## CCOC(=O)C1CCN(C=C2C(=O)N(C)C(=S)N(C)C2=O)CC1
[1]
  AC50: 18.4 µM [falling, single point]

## O=c1oc(Nc2ccccc2F)nc2ccccc12
[1]
  AC50: 2.51 µM [falling, full curve]

## CN(C(=O)Oc1ccc(F)cc1)c1ccccc1
[1]
  AC50: 35.5 µM [rising, single point]

Source: PubChem BioAssay AID493014 (National Center for Advancing Translational Sciences (NCATS), 2011)
